Measured values reported in patent US20230285405A1, “Pharmaceuticals for Treating or Preventing Nidoviruses and Picornaviruses” (priority 2020, published 2023).
Some of these results come from one statement about several compounds together.

System: SARS-CoV-2
Experiment: SARS-CoV-2 plaque titers (progeny production)
Assay type: cell-based, SARS-CoV-2 (nCoV/Washington/1/2020)
Conditions: 10 μM drug for 2 hours, MOI 0.5, supernatant collected 2 days after
Description: For SARS-CoV-2 plaque titers, cell supernatants from the infection described above were serially diluted (10-fold steps were used) and used to infect Vero E6 cells for 1 hour. Inoculum was removed and 1.25% methylcellulose DMEM solution was added to the cells and incubated for 3 days. Plates were fixed in 1:10 formalin for 1 hour, stained with crystal violet for 1 hour and were counted to determine plaque forming units (PFU)/ml.
The effect of several drugs on the production of viable progeny viruses was evaluated. Cells were treated with 10 μM of the drugs for 2 hours, infected at an MOI of 0.5 and the supernatant collected 2 days after for titration (FIG. 2C). Cepharanthine and azelastine completely eliminated SARS-CoV-2 progeny production (>5-logs decrease), while flupenthixol and desloratidine reduced viral titers by about 2-logs. Ultimately, the screen identified 20 safe-in-human drugs that are able to inhibit both OC43 and SARS-CoV-2 infection in vitro.

Compound	decrease of SARS-CoV-2 viral titers (progeny production) [logs]
CN1CCCC(n2nc(Cc3ccc(Cl)cc3)c3ccccc3c2=O)CC1.O (centres unmarked) [Azelastine HCl]	> 5
COc1ccc2cc1Oc1ccc(cc1)C[C@H]1c3c(cc4c(c3Oc3cc5c(cc3OC)CCN(C)[C@@H]5C2)OCO4)CCN1C [Cepharanthine]	> 5
